Small-molecule microarray binding calls

From ROBIN, a set of small-molecule microarray screens (doi:10.1002/anie.202211358).

Targets (5′ to 3′):
T1: SAM-II riboswitch RNA pseudoknot, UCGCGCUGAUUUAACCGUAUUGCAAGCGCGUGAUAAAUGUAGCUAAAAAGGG. About 21,000 compounds screened, about 200 hits.
T2: TPP riboswitch RNA three-way junction, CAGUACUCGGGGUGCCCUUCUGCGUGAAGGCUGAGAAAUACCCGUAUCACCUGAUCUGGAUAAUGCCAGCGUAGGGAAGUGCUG. About 24,000 compounds screened, about 160 hits.
T3: PreQ1 riboswitch RNA pseudoknot, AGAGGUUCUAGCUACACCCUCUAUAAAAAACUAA. From B. subtilis. About 24,000 compounds screened, about 170 hits.

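Compounds were printed on reactive glass slides in duplicate spots, a dye-labelled oligonucleotide was laid over them, and the fluorescence left after washing was read. The data file lists only calls. An earlier report of the laboratory on the PreQ1, TPP and SAM-II riboswitches (doi:10.1038/s41467-019-09493-3) used 1 µM RNA for 2 h and required a mean Z-score above 3 (spot signal-to-noise against the whole library), a score well above that on a control array, and duplicate spots agreeing (coefficient of variation under 100); it then also set aside compounds that hit other targets, which this list keeps. The cut-offs behind this list may differ. These are primary screening calls, not affinities; a compound without a hit may have attached poorly or may still bind in solution.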 A compound is marked active if it was called a hit and inactive if it was screened but was not. Compounds were drawn at random from those tested, without regard to their results. A dash means that no call is listed here.

| structure | T1 | T2 | T3 |
|---|---|---|---|
| `Cc1nnc2c(Nc3ccc(S(=O)(=O)N(C)C)cc3)nc3ccccc3n12` | - | inactive | inactive |
| `CCN(CC)S(=O)(=O)c1ccc(C(=O)OCCNC2=NS(=O)(=O)c3ccccc32)cc1` | inactive | inactive | inactive |
| `COc1ccccc1-c1ncc(-c2cn(CC(O)CO)nn2)s1` (stereo not given) | inactive | inactive | inactive |
| `CCOC(=O)c1cnc2c(C)c(Cl)ccc2c1NCCN(C)C` | inactive | inactive | inactive |
| `COCCn1cnnc1C(C)NC1CCC2(CCNCC2)CC1` (stereo not given) | inactive | inactive | inactive |
| `N[C@@H]1CC[C@H](C(=O)NCCn2cc(Cl)cn2)C1` | inactive | inactive | inactive |
| `COc1ccc(S(=O)(=O)c2cnc3ccc(F)cc3c2NCc2ccccc2)cc1` | - | inactive | inactive |
| `CN[C@H]1[C@@H](O[C@@H]2[C@H](O[C@@H]3[C@@H](O)[C@@H](O)[C@@H](N=C(N)N)[C@@H](O)[C@@H]3N=C(N)N)O[C@H](C)[C@@]2(O)C=O)O[C@@H](CO)[C@@H](O)[C@H]1O` | inactive | inactive | inactive |
| `CC1CCN(c2nc(NC(C)(C)CO)nc(N3CCOCC3)n2)CC1` | inactive | inactive | inactive |
| `Cc1nc(N)ncc1S(=O)(=O)c1ccccc1` | inactive | inactive | inactive |
| `COc1ccc(S(=O)(=O)N2CCN(c3cc(C)nc(Nc4ccc(C)cc4)n3)CC2)cc1` | - | inactive | inactive |
| `Cc1ccccc1OCC(O)C(=O)N1CCC(CN2CCCC2=O)CC1` (stereo not given) | inactive | inactive | inactive |
| `CCC(O)c1nc2ccccc2n1Cc1ccccc1Cl` (stereo not given) | - | inactive | inactive |
| `CCC(O)c1nc2ccccc2n1Cc1ccc2ccccc2c1` (stereo not given) | inactive | inactive | inactive |
| `O=C1CC(NCCc2c[nH]c3ccccc23)C(=O)N1c1cccc(Cl)c1` (stereo not given) | inactive | inactive | inactive |
| `CCOc1cc2c(Cl)ncnc2c(OCC)c1OCC` | inactive | inactive | inactive |
| `COc1ccc(CNc2nc(-c3ccccc3OC)cc(C(F)(F)F)n2)cc1` | inactive | inactive | inactive |
| `Cc1ccc2ccccc2c1Cn1c(C(O)c2ccccc2)nc2ccccc21` (stereo not given) | inactive | inactive | inactive |
| `Oc1ccccc1-c1nc2cnccn2c1Nc1cccc(C(F)(F)F)c1` | inactive | inactive | inactive |
| `c1coc(-c2cc(CNc3ncnc4sc5c(c34)CCNC5)no2)c1` | active | inactive | inactive |
| `c1ccc(CNCCc2c[nH]c3ccccc23)cc1` | inactive | inactive | inactive |
| `COc1cc(C2c3c(-c4ccccc4O)n[nH]c3C(=O)N2CCO)ccc1OCc1ccccc1` (stereo not given) | - | inactive | inactive |
| `Cn1nccc1CCNC(=O)[C@H]1CNC[C@H](C(=O)N2CCOCC2)C1` | inactive | inactive | inactive |

The last 3 entries again:

structure,T1,T2,T3
c1ccc(CNCCc2c[nH]c3ccccc23)cc1,inactive,inactive,inactive
COc1cc(C2c3c(-c4ccccc4O)n[nH]c3C(=O)N2CCO)ccc1OCc1ccccc1 (stereo not given),-,inactive,inactive
Cn1nccc1CCNC(=O)[C@H]1CNC[C@H](C(=O)N2CCOCC2)C1,inactive,inactive,inactive